The list shows a part of the results. Single values are uncertain, as repeats are few or missing.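 The apoptosis fraction was the count of cleaved-PARP antibody-stained nuclei relative to all DNA-stained nuclei, imaged in 1,536-well plates. Screening doses were set so most cells survived, and baseline and induced cleaved-PARP levels vary greatly across cell lines.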
These compounds were tested on SkMel5 (assay: cleaved PARP positive nuclei fraction relative to DMSO control; melanoma cells; higher = more apoptosis). Conditions: library dose: low library concentration; 72 h.

Compound	cleaved PARP positive nuclei fraction [%]
CN1CCN(c2ccc3nc(-c4c(N)c5c(F)cccc5[nH]c4=O)[nH]c3c2)CC1 [Dovitinib] + COc1cc2c(Oc3ccc4[nH]c(C)cc4c3F)ncnc2cc1OCCCN1CCCC1 [cediranib] (first compound 0.1 µM, partner dose 0.4 µM)	49.3
CC(C)C[C@H](NC(=O)[C@H](Cc1ccccc1)NC(=O)c1cnccn1)B(O)O [Bortezomib] + CC(C)CCN1c2nc(Nc3cc(F)c(O)c(F)c3)ncc2N(C)C(=O)C1C [BID1870] (first compound 0.001 µM, partner dose 0.2 µM)	78.5
O=C(O)c1ccc2c(c1)nc(Nc1cccc(Cl)c1)c1ccncc12 + NCC(=O)Nc1ccc(-n2nc(C(F)(F)F)cc2-c2ccc3c(ccc4ccccc43)c2)cc1 [OSU03012] (first compound 0.4 µM, partner dose 1 µM)	70.2
Nc1ncn([C@H]2C[C@H](O)[C@@H](CO)O2)c(=O)n1 [decitabine] + Cn1cc(/C=C2\C(=O)Nc3cccnc32)c2ccccc21 [GW441756] (first compound 0.1 µM, partner dose 0.4 µM)	95.3
CNC(=O)c1cc(Oc2ccc(NC(=O)Nc3ccc(Cl)c(C(F)(F)F)c3)cc2)ccn1 [sorafenib] + Oc1nc(-c2ccc(C(F)(F)F)cc2)nc2c1CSCC2 [XAV939] (first compound 0.4 µM, partner dose 2 µM)	41.7
O=C(O)[C@@H]1[O][Sb](=[O])([O][Sb]2(=[O])[O][C@H]([C@H](O)CO)[C@H](O)[C@H](C(=O)O)[O]2)[O][C@H]([C@H](O)CO)[C@@H]1O (stereo not given in full) [stibogluconate] + C=CCn1c(=O)c2cnc(Nc3ccc(N4CCN(C)CC4)cc3)nc2n1-c1cccc(C(C)(C)O)n1 [MK1775] (first compound 2 µM, partner dose 0.02 µM)	35
CC(C)C[C@H](NC(=O)[C@H](Cc1ccccc1)NC(=O)c1cnccn1)B(O)O [Bortezomib] + O=c1cc(-c2cccc3c2Sc2ccccc2S3)oc(N2CCOCC2)c1 [KU55933] (first compound 0.001 µM, partner dose 1 µM)	73.8
Cn1c(=O)n(-c2ccc(C(C)(C)C#N)cc2)c2c3cc(-c4cnc5ccccc5c4)ccc3ncc21 + OCCn1cc(-c2cnc3nnn(Cc4ccc5ncccc5c4)c3n2)cn1 [PF04217903] (first compound 0.004 µM, partner dose 1 µM)	39.1
Cn1c(=O)n(-c2ccc(C(C)(C)C#N)cc2)c2c3cc(-c4cnc5ccccc5c4)ccc3ncc21 + c1cc(-c2cnn3cc(-c4ccc(OCCN5CCCCC5)cc4)cnc23)ccn1 [Dorsomorphin] (first compound 0.004 µM, partner dose 0.4 µM)	73.7
O=C(O)c1ccc2c(c1)nc(Nc1cccc(Cl)c1)c1ccncc12 + COc1ccc(-c2ccc3c(N4CCOCC4)nc(N4C[C@@H](C)O[C@@H](C)C4)nc3n2)cc1CO [KU0063794] (first compound 0.4 µM, partner dose 0.02 µM)	183

The compounds below were run on UACC257 in the same assay as above. Conditions: library dose: low library concentration; 72 h.

Compound	cleaved PARP positive nuclei fraction [%]
O=C(O)[C@@H]1[O][Sb](=[O])([O][Sb]2(=[O])[O][C@H]([C@H](O)CO)[C@H](O)[C@H](C(=O)O)[O]2)[O][C@H]([C@H](O)CO)[C@@H]1O (stereo not given in full) [stibogluconate] + OCCn1cc(-c2cnc3nnn(Cc4ccc5ncccc5c4)c3n2)cn1 [PF04217903] (first compound 2 µM, partner dose 1 µM)	56.8
C[C@@H](Oc1cc(-c2cnn(C3CCNCC3)c2)cnc1N)c1c(Cl)ccc(F)c1Cl [Crizotinib] + Oc1cc(-c2nc(-c3ccccc3)[nH]c2-c2ccncc2)ccc1Cl [L779450] (first compound 0.2 µM, partner dose 0.2 µM)	136
C[C@@H](Oc1cc(-c2cnn(C3CCNCC3)c2)cnc1N)c1c(Cl)ccc(F)c1Cl [Crizotinib] + CCCCCCCCCCCC1=C(O)C(=O)C=C(O)C1=O [Embelin] (first compound 0.2 µM, partner dose 1.2 µM)	234
Nc1ncn([C@H]2C[C@H](O)[C@@H](CO)O2)c(=O)n1 [decitabine] + O=C(Nc1ccccc1)c1cc([N+](=O)[O-])ccc1Cl [GW9662] (first compound 0.1 µM, partner dose 2 µM)	29.6
C[C@@H](Oc1cc(-c2cnn(C3CCNCC3)c2)cnc1N)c1c(Cl)ccc(F)c1Cl [Crizotinib] + O=c1cc(-c2cccc3c2Sc2ccccc2S3)oc(N2CCOCC2)c1 [KU55933] (first compound 0.2 µM, partner dose 1 µM)	131
CS(=O)(=O)CCNCc1ccc(-c2ccc3ncnc(Nc4ccc(OCc5cccc(F)c5)c(Cl)c4)c3c2)o1 [lapatinib] + OCCn1cc(-c2cnc3nnn(Cc4ccc5ncccc5c4)c3n2)cn1 [PF04217903] (first compound 0.8 µM, partner dose 1 µM)	217
Cc1cc(Nc2cc(N3CCN(C)CC3)nc(/C=C/c3ccccc3)n2)n[nH]1 + N#Cc1c(O)c2c(-c3ccc(-c4ccccc4O)cc3)csc2[nH]c1=O [A769662] (first compound 0.04 µM, partner dose 2 µM)	113
CCCS(=O)(=O)Nc1ccc(F)c(C(=O)c2c[nH]c3ncc(Cl)cc23)c1F + COc1cc2ncnc(Nc3ccc(Oc4ccccc4)cc3)c2cc1OC [SrcI1] (first compound 0.08 µM, partner dose 2 µM)	36.4
Nc1nc(F)nc2c1ncn2[C@@H]1O[C@H](CO)[C@@H](O)[C@@H]1O [fludarabine] + CO[C@@H]1[C@H](N(C)C(=O)c2ccccc2)C[C@H]2O[C@]1(C)n1c3ccccc3c3c4c(c5c6ccccc6n2c5c31)C(=O)NC4 [Midostaurin] (first compound 0.2 µM, partner dose 0.08 µM)	153
Nc1ncn([C@H]2C[C@H](O)[C@@H](CO)O2)c(=O)n1 [decitabine] + O=C(O)c1ccc(-c2c[nH]c3ncc(-c4ccccc4)cc23)cc1C1CCCC1 [GSK650394] (first compound 0.1 µM, partner dose 0.16 µM)	107
CN1CCN(c2ccc3nc(-c4c(N)c5c(F)cccc5[nH]c4=O)[nH]c3c2)CC1 [Dovitinib] + Oc1cc(-c2nc(-c3ccccc3)[nH]c2-c2ccncc2)ccc1Cl [L779450] (first compound 0.1 µM, partner dose 0.2 µM)	319
CS(=O)(=O)CCNCc1ccc(-c2ccc3ncnc(Nc4ccc(OCc5cccc(F)c5)c(Cl)c4)c3c2)o1 [lapatinib] + O=S(=O)(c1ccccc1)N(CC(F)(F)F)c1ccc(C(O)(C(F)(F)F)C(F)(F)F)cc1 [T0901317] (first compound 0.8 µM, partner dose 1.4 µM)	119
CNC(=O)c1cc(Oc2ccc(NC(=O)Nc3ccc(Cl)c(C(F)(F)F)c3)cc2)ccn1 [sorafenib] + O=C(O)c1ccc(-c2c[nH]c3ncc(-c4ccccc4)cc23)cc1C1CCCC1 [GSK650394] (first compound 0.4 µM, partner dose 0.16 µM)	66.7
CC(C)C[C@H](NC(=O)[C@H](Cc1ccccc1)NC(=O)c1cnccn1)B(O)O [Bortezomib] + NC(=O)Nc1cc(-c2cccc(F)c2)sc1C(=O)N[C@H]1CCCNC1 [AZD7762] (first compound 0.001 µM, partner dose 0.02 µM)	15.2
Nc1nc(F)nc2c1ncn2[C@@H]1O[C@H](CO)[C@@H](O)[C@@H]1O [fludarabine] + NCC(=O)Nc1ccc(-n2nc(C(F)(F)F)cc2-c2ccc3c(ccc4ccccc43)c2)cc1 [OSU03012] (first compound 0.2 µM, partner dose 1 µM)	584
CC(C)C[C@H](NC(=O)[C@H](Cc1ccccc1)NC(=O)c1cnccn1)B(O)O [Bortezomib] + COc1cc2c(Oc3ccc4[nH]c(C)cc4c3F)ncnc2cc1OCCCN1CCCC1 [cediranib] (first compound 0.001 µM, partner dose 0.4 µM)	138
CC(C)C[C@H](NC(=O)[C@H](Cc1ccccc1)NC(=O)c1cnccn1)B(O)O [Bortezomib] + C[C@@H]1CCN(C(=O)CC#N)C[C@@H]1N(C)c1ncnc2[nH]ccc12 [CP690550] (first compound 0.001 µM, partner dose 1 µM)	35.5
Nc1ccn([C@@H]2O[C@H](CO)[C@@H](O)C2(F)F)c(=O)n1 [gemcitabine] + C=CCn1c(=O)c2cnc(Nc3ccc(N4CCN(C)CC4)cc3)nc2n1-c1cccc(C(C)(C)O)n1 [MK1775] (first compound 0.0004 µM, partner dose 0.02 µM)	69.5
CNC(=O)c1cc(Oc2ccc(NC(=O)Nc3ccc(Cl)c(C(F)(F)F)c3)cc2)ccn1 [sorafenib] + COc1cc2c(Oc3ccc4[nH]c(C)cc4c3F)ncnc2cc1OCCCN1CCCC1 [cediranib] (first compound 0.4 µM, partner dose 0.4 µM)	83
CNC(=O)c1cc(Oc2ccc(NC(=O)Nc3ccc(Cl)c(C(F)(F)F)c3)cc2)ccn1 [sorafenib] + Cc1ccc(NC(=O)c2cccc(N(C)C)c2)cc1NC(=O)c1ccc(O)cc1 [ZM336372] (first compound 0.4 µM, partner dose 2 µM)	33.5

Individual results from the list:
Value for CCCS(=O)(=O)Nc1ccc(F)c(C(=O)c2c[nH]c3ncc(Cl)cc23)c1F + COc1cc2ncnc(Nc3ccc(Oc4ccccc4)cc3)c2cc1OC [SrcI1] (first compound 0.08 µM, partner dose 2 µM) under cleaved PARP positive nuclei fraction [%]: 36.4
Value for C[C@@H](Oc1cc(-c2cnn(C3CCNCC3)c2)cnc1N)c1c(Cl)ccc(F)c1Cl [Crizotinib] + Oc1cc(-c2nc(-c3ccccc3)[nH]c2-c2ccncc2)ccc1Cl [L779450] (first compound 0.2 µM, partner dose 0.2 µM) under cleaved PARP positive nuclei fraction [%]: 136
